From patent US6359176B1, “Cationic surfactants, process for producing the same and utilization thereof” (Matsumoto Yushi-Seiyaku Co., Ltd., priority 1999, dated 2002)

Key:
activated sludge = experiment: Biodegradability: degradation by microorganisms with degradation tester and closed system oxygen consumption meter; conditions: 14 days; 100 % = whole sample degraded into inorganic substances
Protocol: The biodegradability of the derivatives was determined by checking the degree of degradation of those chemicals by microorganisms (procedures defined in Japanese domestic low for regulation of chemical substances and in OECD) with a degradation tester and closed system oxygen consumption meter. The test was continued for 14 days and the biodegradability data was calculated into percentage.
The 100-% degradability in the testing means that whole of a test sample has been degraded into inorganic substances such as carbon dioxide.

[1] = Water-absorption effect on treated fabric (JIS P-8141, height of absorbed water); conditions: treated with 0.005-wt % aqueous solution 30 minutes, 25° C., 40% RH
[2] = Antistaticity test of treated fabric (static half-life); conditions: charged with 10-kV for 30 seconds, 25° C., 40% RH
[3] = Frictional coefficient of treated fabric; conditions: 300 mm/min, 300-g loading, 25° C., 40% RH
[4] = Cotton sheeting, average of two tests
[5] = Polyester/cotton blend (65:35, %)
[6] = Polyester/cotton blend (65:35%)

SMILES | Biodegradability (%) (activated sludge) | Height of absorbed water [1, 4] | Height of absorbed water ([1]; Polyester taffeta) | Height of absorbed water [1, 5] | Static half-life ([2]; Cotton sheeting) | Static half-life ([2]; Polyester taffeta) | Static half-life [2, 5] | Dynamic frictional coefficient ([3]; Cotton sheeting) | Static frictional coefficient ([3]; Cotton sheeting) | Dynamic frictional coefficient [3, 6] | Static frictional coefficient [3, 6]
CCCCCCCCCCCCCCCC[N+](C)(C)C.[Br-] [Cetyl trimethyl ammonium bromide, reference compound] | −2.2% | – | – | – | – | – | – | – | – | – | –
CCCCCCCCCCCCCCCCCC[N+](C)(C)CCCCCCCCCCCCCCCCCC.[Cl-] [DSDMAC, dimethyl dioctadecyl ammonium chloride, reference compound] | – | 3.9 cm | 0.8 cm | 3.7 cm | 0.96 s | 12.9 s | 1.35 s | 0.07 | 0.13 | 0.18 | 0.19
CCCCCCCCCCCC(=O)OCC(O)C(O)C(O)C(O)C[N+](C)(C)C.[Cl-] (stereo not shown) [Monolaurate derivative] | 43.0% | 7.0 cm | 2.0 cm | 6.0 cm | 1.03 s | 5.6 s | 1.16 s | 0.22 | 0.26 | 0.17 | 0.18
CCCCCCCCCCCCCC(=O)OCC(O)C(O)C(O)C(O)C[N+](C)(C)C.[I-] (stereo not shown) [Monomyristate derivative] | 35.5% | – | – | – | – | – | – | – | – | – | –
CCCCCCCCCCCCCCCC(=O)OCC(O)C(O)C(O)C(O)C[N+](C)(C)C.[Cl-] (stereo not shown) [Monopalmitate derivative] | – | 5.6 cm | 2.7 cm | 4.9 cm | 1.01 s | 4.5 s | 1.15 s | 0.32 | 0.35 | 0.18 | 0.19
C[N+](C)(C)CC(O)C(O)C(O)C(O)CO.[I-] (stereo not shown) [Quaternary salt of methyl glucamine, HO—CH2—(CH.OH)4—CH2—N^+(CH3)3I^−, reference compound] | 17.1% | – | – | – | – | – | – | – | – | – | –
